According to the supplement of paper PMC10626197:

System: MCF7
Assay: cell viability relative to DMSO control (raw); higher = more viable cells
Details: exposure time 72 h
Description: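 MCF7 cells, 1000 cells/well in 384-well plates, treated with 6x6 dose matrices of drug pairs (1:3 serial dilutions, DMSO as lowest dose) for 72 h at 37 °C. Viability read by CellTiter-Glo luminescence, 3 biological replicates. Normalised viability sets 0% at the highest doxorubicin dose and 100% at the 0,0 µM control per combination.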

CC/C(=C(\c1ccccc1)c1ccc(OCCN(C)C)cc1)c1ccccc1 [Tamoxifen] + COc1ccc2cc([C@H](C)C(=O)O)ccc2c1 [Naproxen]
cell viability [%]
Details	drug 2 concentration 0 µM	drug 2 concentration 0.0925926 µM	drug 2 concentration 0.277778 µM	drug 2 concentration 0.833333 µM	drug 2 concentration 2.5 µM	drug 2 concentration 7.5 µM
drug 1 concentration 0.123457 µM	101	94.2	96.2	103	96.8	105
drug 1 concentration 0.37037 µM	103	109	118	121	115	112
drug 1 concentration 1.11111 µM	98.7	108	104	107	110	114
drug 1 concentration 3.33333 µM	87.7	94.4	90.4	85.3	95.4	84.3
drug 1 concentration 10 µM	33.5	33.8	32.3	31.1	27.8	24.7

CC[C@@]1(O)C(=O)OCc2c1cc1n(c2=O)Cc2cc3c(CN(C)C)c(O)ccc3nc2-1 [Topotecan] + CC(C)NCC(O)COc1ccc(CCOCC2CC2)cc1 [Betaxolol (hydrochloride)]
cell viability [%]
Details	drug 2 concentration 0 µM	drug 2 concentration 0.308642 µM	drug 2 concentration 0.925926 µM	drug 2 concentration 2.77778 µM	drug 2 concentration 8.33333 µM	drug 2 concentration 25 µM
drug 1 concentration 0.00617284 µM	112	108	106	108	103	101
drug 1 concentration 0.0185185 µM	110	124	121	121	102.9	103
drug 1 concentration 0.0555556 µM	100	102	104	107	101	103
drug 1 concentration 0.166667 µM	97.2	100	99	103	101	103
drug 1 concentration 0.5 µM	89.8	89.9	92.5	87.9	97.2	91

COc1cc2/c(=N/c3ccc(Br)cc3F)nc[nH]c2cc1OCC1CCN(C)CC1 [Vandetanib] + C=C1/C(=C\C=C2/CCC[C@]3(C)[C@@H]([C@H](C)CCCC(C)C)CC[C@@H]23)C[C@@H](O)C[C@@H]1O [Alfacalcidol]
cell viability [%]
Details	drug 2 concentration 0 µM	drug 2 concentration 0.617284 µM	drug 2 concentration 1.85185 µM	drug 2 concentration 5.55556 µM	drug 2 concentration 16.6667 µM	drug 2 concentration 50 µM
drug 1 concentration 0.0617284 µM	77.6	77.89	75.8	70	62.7	0.72
drug 1 concentration 0.185185 µM	76.75	74.6	75.58	73.8	61.6	0.334
drug 1 concentration 0.555556 µM	68.9	70.9	68	73.1	56.7	0.332
drug 1 concentration 1.66667 µM	70	67.9	65.9	65.1	55.5	0.217
drug 1 concentration 5 µM	66.5	62.4	63.3	57.4	37.3	0.384

COc1cc2/c(=N/c3ccc(Br)cc3F)nc[nH]c2cc1OCC1CCN(C)CC1 [Vandetanib] + CCOC(=O)[C@H](CCc1ccccc1)N[C@@H](C)C(=O)N1[C@H](C(=O)O)C[C@@H]2CCC[C@@H]21 [Ramipril]
cell viability [%]
Details	drug 2 concentration 0 µM	drug 2 concentration 0.0617284 µM	drug 2 concentration 0.185185 µM	drug 2 concentration 0.555556 µM	drug 2 concentration 1.66667 µM	drug 2 concentration 5 µM
drug 1 concentration 0.0617284 µM	93.2	97.9	100	104	103	91.5
drug 1 concentration 0.185185 µM	105	105	96.3	105.67	103	107
drug 1 concentration 0.555556 µM	86.2	89.5	91	88.8	88.2	81.6
drug 1 concentration 1.66667 µM	94.1	92.3	91.4	88.7	91.1	80.1
drug 1 concentration 5 µM	82	92.6	88.5	91.9	76.2	69.8

COc1cc2/c(=N/c3ccc(Br)cc3F)nc[nH]c2cc1OCC1CCN(C)CC1 [Vandetanib] + CNC[C@H](O)c1ccc(O)c(O)c1 [Epinephrine HCl]
cell viability [%]
Details	drug 2 concentration 0 µM	drug 2 concentration 0.0740741 µM	drug 2 concentration 0.222222 µM	drug 2 concentration 0.666667 µM	drug 2 concentration 2 µM	drug 2 concentration 6 µM
drug 1 concentration 0.0617284 µM	104	97.6	102	103	92.9	71.8
drug 1 concentration 0.185185 µM	110	104	113	102	100	64.4
drug 1 concentration 0.555556 µM	108	104	100	101	90.2	68.6
drug 1 concentration 1.66667 µM	89.78	92	88.6	88.1	80.5	62
drug 1 concentration 5 µM	89.7	94.7	86.6	83.8	78.1	52

CCCS(=O)(=O)Nc1ccc(F)c(C(=O)c2c[nH]c3ncc(-c4ccc(Cl)cc4)cc23)c1F [Vemurafenib] + C=C1/C(=C\C=C2/CCC[C@]3(C)[C@@H]([C@H](C)CCCC(C)C)CC[C@@H]23)C[C@@H](O)C[C@@H]1O [Alfacalcidol]
cell viability [%]
Details	drug 2 concentration 0 µM	drug 2 concentration 0.617284 µM	drug 2 concentration 1.85185 µM	drug 2 concentration 5.55556 µM	drug 2 concentration 16.6667 µM	drug 2 concentration 50 µM
drug 1 concentration 0.154321 µM	97.4	97.3	95	97.8	80.6	1.11
drug 1 concentration 0.462963 µM	102	98.1	103	94.1	89.2	0.595
drug 1 concentration 1.38889 µM	103	99.4	106	94.8	83	2.44
drug 1 concentration 4.16667 µM	105	114	103	93.7	76.7	0.507
drug 1 concentration 12.5 µM	114	93.8	90	93.3	69.1	1.09

Where a name gives a salt, the structure may show the parent alone. Several reference drugs read as weak here; read low effects with care.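 Drug pairs were tested on MCF7 breast cancer cells in a dose grid. On every plate, solvent-only DMSO wells served as the untreated reference, and a doxorubicin series served as the total-kill control. No hit threshold applies to the viability readings.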
